Test results published in the supplement of paper PMC12819154, “High-throughput peptide-centric local stability assay extends protein–ligand identification to membrane proteins, tissues and bacteria” (Nature Structural & Molecular Biology, 2025).
Some of the results follow. Small differences around the control level are noise.

The chains behind the UniProt entries cited, without tags or fusion partners. Where a name states a change or a piece, a line headed by the entry shows the natural chain unless it says otherwise.
UniProt Q80U58: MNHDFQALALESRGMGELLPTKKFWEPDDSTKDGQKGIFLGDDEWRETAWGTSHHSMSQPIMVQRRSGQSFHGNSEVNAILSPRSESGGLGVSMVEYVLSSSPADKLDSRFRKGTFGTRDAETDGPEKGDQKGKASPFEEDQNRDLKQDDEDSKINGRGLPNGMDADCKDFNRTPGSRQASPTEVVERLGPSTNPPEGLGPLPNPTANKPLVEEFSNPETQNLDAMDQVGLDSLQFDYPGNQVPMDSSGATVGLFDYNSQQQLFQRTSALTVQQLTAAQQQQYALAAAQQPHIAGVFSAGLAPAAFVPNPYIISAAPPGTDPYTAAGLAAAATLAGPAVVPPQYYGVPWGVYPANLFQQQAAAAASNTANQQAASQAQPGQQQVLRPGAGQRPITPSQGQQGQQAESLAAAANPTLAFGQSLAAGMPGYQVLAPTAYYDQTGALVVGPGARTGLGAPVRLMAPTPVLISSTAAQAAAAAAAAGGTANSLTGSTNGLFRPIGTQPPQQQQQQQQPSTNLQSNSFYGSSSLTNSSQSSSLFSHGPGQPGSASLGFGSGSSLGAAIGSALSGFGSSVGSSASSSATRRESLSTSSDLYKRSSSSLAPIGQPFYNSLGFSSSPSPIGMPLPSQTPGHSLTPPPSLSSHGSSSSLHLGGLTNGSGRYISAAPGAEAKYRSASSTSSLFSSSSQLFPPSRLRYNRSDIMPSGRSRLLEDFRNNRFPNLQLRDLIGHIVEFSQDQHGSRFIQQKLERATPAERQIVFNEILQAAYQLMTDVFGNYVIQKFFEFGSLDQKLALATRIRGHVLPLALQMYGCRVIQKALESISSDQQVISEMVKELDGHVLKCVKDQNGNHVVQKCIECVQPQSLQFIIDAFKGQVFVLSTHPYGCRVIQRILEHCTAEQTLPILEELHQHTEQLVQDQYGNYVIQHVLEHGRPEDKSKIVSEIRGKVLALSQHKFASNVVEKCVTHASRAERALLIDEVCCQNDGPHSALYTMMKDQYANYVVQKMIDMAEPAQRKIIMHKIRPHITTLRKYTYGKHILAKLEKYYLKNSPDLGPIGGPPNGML
UniProt Q7TQE6: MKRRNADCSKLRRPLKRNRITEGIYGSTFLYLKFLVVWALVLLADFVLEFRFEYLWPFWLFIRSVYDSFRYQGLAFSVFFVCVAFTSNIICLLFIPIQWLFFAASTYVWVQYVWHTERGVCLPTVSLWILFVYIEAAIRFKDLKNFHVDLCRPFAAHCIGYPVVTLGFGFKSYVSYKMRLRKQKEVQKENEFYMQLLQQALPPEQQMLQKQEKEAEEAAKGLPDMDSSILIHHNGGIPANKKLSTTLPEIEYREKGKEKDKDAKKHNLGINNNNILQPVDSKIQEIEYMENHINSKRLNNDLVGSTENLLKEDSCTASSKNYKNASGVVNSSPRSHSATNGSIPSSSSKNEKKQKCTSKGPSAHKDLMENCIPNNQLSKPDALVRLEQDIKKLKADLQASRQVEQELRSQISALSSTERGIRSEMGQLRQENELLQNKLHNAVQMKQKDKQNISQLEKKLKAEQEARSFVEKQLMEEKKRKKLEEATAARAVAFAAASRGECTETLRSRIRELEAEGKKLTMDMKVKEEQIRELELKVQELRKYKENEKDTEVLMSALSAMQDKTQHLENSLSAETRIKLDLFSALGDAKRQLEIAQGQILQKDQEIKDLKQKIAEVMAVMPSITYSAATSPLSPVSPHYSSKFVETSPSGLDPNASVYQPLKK
UniProt Q8BG73: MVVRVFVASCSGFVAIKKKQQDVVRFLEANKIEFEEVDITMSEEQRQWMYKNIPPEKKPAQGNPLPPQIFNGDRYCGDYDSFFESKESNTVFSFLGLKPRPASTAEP
UniProt Q7TPR4, whole entry: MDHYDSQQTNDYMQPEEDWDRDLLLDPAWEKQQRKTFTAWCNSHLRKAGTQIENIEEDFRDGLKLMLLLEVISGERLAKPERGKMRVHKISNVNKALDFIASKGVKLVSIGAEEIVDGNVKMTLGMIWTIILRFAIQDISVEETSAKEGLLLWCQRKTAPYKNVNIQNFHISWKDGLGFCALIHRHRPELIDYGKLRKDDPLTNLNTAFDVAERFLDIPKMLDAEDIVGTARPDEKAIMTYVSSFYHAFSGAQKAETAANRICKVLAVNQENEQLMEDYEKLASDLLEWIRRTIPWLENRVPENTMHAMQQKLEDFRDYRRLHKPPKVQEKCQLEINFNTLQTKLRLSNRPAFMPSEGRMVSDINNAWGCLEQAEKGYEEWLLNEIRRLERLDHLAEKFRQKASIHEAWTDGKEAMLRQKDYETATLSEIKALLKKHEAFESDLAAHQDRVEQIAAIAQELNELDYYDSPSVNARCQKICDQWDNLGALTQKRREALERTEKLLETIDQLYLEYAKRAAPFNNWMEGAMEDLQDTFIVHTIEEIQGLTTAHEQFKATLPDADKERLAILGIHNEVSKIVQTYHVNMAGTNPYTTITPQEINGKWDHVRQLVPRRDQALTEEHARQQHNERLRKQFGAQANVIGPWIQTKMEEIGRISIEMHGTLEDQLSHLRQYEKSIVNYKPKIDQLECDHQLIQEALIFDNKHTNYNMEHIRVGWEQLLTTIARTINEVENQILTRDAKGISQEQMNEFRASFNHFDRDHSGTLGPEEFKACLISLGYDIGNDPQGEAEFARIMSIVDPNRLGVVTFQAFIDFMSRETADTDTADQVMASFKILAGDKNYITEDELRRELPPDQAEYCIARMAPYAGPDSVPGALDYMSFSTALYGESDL
UniProt Q811J3: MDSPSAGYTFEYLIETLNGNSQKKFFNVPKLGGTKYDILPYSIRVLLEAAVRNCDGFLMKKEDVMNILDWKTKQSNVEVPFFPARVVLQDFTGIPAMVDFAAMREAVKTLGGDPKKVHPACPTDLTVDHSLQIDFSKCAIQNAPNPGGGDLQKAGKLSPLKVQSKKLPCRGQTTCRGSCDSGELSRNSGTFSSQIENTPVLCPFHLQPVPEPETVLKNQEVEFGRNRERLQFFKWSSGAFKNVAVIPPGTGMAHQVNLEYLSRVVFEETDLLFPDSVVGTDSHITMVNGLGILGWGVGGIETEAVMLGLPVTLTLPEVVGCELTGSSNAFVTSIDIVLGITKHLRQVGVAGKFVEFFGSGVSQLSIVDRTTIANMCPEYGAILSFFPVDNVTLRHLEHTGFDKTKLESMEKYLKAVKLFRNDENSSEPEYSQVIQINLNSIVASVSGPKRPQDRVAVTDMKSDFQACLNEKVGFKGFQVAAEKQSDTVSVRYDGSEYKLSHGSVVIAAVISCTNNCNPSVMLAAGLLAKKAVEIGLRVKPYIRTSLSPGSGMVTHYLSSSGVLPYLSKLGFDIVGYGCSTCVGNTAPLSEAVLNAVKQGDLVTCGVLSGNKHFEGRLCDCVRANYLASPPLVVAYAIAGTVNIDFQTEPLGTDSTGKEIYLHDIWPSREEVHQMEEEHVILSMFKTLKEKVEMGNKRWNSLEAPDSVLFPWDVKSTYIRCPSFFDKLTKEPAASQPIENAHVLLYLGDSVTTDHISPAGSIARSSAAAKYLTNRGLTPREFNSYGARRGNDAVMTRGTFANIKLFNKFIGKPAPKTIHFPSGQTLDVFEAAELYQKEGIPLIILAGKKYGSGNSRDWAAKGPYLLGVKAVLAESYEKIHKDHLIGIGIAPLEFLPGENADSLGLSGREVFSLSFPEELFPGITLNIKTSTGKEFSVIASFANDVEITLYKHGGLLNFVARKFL
UniProt Q80XC3: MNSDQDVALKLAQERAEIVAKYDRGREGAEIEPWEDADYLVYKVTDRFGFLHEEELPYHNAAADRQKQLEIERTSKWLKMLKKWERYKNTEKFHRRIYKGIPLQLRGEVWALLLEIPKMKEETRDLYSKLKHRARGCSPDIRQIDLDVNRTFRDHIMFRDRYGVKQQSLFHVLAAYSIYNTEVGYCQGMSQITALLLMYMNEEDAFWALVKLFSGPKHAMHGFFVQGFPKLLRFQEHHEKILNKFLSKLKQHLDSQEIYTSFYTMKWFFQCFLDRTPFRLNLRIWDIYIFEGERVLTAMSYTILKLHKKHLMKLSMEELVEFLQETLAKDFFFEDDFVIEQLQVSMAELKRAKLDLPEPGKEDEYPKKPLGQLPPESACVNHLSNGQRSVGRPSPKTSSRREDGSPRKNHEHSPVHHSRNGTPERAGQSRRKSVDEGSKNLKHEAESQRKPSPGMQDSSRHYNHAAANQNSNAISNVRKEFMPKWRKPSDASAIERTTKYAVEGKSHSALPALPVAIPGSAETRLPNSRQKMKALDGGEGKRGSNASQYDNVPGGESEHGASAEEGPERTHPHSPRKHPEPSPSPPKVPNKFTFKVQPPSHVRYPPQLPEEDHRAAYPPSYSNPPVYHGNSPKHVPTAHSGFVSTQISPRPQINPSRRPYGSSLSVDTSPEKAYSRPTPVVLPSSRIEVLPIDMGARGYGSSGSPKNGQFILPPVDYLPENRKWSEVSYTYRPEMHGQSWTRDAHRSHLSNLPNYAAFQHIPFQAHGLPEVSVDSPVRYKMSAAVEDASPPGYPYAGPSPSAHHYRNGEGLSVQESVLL
UniProt Q8BFU3: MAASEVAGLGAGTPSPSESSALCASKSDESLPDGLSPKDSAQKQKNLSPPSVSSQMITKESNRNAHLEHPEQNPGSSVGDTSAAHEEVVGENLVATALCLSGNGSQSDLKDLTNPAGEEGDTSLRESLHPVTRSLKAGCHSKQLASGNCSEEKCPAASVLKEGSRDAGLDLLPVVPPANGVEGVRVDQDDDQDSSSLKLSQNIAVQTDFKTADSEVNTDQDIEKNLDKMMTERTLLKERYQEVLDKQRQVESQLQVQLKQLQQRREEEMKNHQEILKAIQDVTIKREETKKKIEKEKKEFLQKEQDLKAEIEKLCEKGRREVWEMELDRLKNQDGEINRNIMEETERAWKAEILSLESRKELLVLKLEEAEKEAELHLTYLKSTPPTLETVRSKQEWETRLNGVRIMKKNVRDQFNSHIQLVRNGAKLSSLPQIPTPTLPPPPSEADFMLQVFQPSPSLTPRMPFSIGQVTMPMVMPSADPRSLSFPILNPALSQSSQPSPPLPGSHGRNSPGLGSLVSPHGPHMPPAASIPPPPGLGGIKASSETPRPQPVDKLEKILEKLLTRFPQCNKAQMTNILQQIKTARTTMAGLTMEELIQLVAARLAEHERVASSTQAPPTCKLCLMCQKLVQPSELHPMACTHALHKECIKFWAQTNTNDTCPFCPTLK
UniProt Q7TMS5: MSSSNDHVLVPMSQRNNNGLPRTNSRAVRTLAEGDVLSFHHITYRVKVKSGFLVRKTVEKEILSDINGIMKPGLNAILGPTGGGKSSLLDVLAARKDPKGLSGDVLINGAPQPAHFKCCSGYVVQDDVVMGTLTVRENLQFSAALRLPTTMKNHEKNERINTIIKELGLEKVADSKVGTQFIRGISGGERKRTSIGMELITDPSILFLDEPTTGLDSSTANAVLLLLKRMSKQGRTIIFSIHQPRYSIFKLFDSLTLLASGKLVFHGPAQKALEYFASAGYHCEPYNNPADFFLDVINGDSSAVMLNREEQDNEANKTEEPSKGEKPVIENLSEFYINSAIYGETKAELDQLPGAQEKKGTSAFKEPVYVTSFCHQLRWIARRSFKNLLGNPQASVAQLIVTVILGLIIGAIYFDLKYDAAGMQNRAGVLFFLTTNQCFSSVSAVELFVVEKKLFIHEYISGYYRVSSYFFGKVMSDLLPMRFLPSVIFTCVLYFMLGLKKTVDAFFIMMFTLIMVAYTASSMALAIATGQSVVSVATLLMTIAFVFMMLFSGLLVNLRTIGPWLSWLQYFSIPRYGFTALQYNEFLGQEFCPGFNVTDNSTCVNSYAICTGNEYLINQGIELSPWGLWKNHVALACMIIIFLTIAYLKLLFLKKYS
UniProt Q80U04: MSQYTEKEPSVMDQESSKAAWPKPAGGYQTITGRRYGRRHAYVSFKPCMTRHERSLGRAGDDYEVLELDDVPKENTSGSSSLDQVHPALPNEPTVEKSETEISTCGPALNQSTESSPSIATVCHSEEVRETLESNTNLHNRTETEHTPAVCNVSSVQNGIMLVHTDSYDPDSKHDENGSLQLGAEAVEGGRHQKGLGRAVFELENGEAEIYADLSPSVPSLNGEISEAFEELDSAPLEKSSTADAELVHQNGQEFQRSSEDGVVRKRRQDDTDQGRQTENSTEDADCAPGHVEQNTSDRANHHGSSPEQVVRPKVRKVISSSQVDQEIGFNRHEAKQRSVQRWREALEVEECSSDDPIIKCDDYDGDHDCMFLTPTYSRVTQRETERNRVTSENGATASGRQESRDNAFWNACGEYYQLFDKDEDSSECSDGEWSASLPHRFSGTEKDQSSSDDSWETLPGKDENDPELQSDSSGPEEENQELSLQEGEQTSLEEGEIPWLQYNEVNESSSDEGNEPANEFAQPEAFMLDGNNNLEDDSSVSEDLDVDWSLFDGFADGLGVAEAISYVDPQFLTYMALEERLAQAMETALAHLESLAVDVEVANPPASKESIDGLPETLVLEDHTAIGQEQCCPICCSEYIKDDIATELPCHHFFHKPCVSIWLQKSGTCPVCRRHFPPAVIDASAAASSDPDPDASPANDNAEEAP

What follows are targets tested with CN[C@@H]1C[C@H]2O[C@@](C)([C@@H]1OC)n1c3ccccc3c3c4c(c5c6ccccc6n2c5c31)C(=O)NC4 [staurosporine] (assay: log2 fold change of pooled soluble protein (PISA), ligand vs vehicle (log2 ratio); higher = more thermally stabilized). Settings: ligand concentration: 20 uM; assay format: PISA pool 52.9/55.5/58.6 C.

Target	log2 fold change of pooled soluble protein
UniProt Q80X90	-0.0334
UniProt Q6P5G6	-0.141
UniProt Q811U4	0.0416
UniProt Q80U58	0.158
UniProt Q7TQE6	-0.109
UniProt Q811I0	0.0155
UniProt Q78T54	-0.317
UniProt Q7TQG1	-0.0265
UniProt Q8BFZ3	-0.476
UniProt Q8BG73	-0.017
UniProt Q6PB66	-0.0904
UniProt Q80XA6	0.0794
UniProt Q7TSG5	0.0379
UniProt Q7TPR4	-0.00597
UniProt Q80W47	-0.257
UniProt Q811J3	-0.757
UniProt Q80W00	0.0214
UniProt Q8BGR9	0.0772

Target	log2 fold change of pooled soluble protein
UniProt Q8BGA9	-0.21
UniProt Q7TPE5	0.107
UniProt Q71RI9	0.0449
UniProt Q8BGI5	0.477
UniProt Q7TNE1	-0.195
UniProt Q78PG9	-0.0553
UniProt Q80TZ9	-0.155
UniProt Q7TQI3	0.19
UniProt Q80U30	-0.0209
UniProt Q80XC3	-0.0189
UniProt Q78KK3	-0.0377
UniProt Q8BFU3	-0.0152
UniProt Q7TMS5	0.0747
UniProt Q7TNC9	-0.106
UniProt Q8BFS6	0.0462
UniProt Q6ZPJ3	0.194
UniProt Q80U04	-0.189

Single values from the results shown.
UniProt Q7TMS5 – log2 fold change of pooled soluble protein: 0.0747
UniProt Q8BGR9 – log2 fold change of pooled soluble protein: 0.0772
